Binding data for one substance are collected here from PMC8875111.

Amino acid sequences for entries named in this document (tags omitted).
UniProt P49841: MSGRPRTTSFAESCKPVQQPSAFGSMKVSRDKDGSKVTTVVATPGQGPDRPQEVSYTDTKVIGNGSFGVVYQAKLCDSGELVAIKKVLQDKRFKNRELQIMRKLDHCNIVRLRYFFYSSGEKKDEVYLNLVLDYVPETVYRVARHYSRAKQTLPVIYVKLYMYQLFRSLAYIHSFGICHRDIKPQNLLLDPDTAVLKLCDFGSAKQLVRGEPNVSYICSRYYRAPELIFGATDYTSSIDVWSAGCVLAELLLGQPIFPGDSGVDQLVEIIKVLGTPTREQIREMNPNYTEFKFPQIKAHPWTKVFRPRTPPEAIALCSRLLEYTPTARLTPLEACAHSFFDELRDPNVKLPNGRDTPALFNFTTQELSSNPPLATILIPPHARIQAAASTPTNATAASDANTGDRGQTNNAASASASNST

Results are given in words; binding and its absence hold for the method and conditions named. Binding seen in cells or lysates may run through a third protein. Some results given as binding are weak or reduced against the parent protein; the word gives no strength. Tags and fused reporters may be left off the sequences shown.

This test has as its target T1, IBtkα-FLAG (UniProt Q9P2D0).
T1 sequence: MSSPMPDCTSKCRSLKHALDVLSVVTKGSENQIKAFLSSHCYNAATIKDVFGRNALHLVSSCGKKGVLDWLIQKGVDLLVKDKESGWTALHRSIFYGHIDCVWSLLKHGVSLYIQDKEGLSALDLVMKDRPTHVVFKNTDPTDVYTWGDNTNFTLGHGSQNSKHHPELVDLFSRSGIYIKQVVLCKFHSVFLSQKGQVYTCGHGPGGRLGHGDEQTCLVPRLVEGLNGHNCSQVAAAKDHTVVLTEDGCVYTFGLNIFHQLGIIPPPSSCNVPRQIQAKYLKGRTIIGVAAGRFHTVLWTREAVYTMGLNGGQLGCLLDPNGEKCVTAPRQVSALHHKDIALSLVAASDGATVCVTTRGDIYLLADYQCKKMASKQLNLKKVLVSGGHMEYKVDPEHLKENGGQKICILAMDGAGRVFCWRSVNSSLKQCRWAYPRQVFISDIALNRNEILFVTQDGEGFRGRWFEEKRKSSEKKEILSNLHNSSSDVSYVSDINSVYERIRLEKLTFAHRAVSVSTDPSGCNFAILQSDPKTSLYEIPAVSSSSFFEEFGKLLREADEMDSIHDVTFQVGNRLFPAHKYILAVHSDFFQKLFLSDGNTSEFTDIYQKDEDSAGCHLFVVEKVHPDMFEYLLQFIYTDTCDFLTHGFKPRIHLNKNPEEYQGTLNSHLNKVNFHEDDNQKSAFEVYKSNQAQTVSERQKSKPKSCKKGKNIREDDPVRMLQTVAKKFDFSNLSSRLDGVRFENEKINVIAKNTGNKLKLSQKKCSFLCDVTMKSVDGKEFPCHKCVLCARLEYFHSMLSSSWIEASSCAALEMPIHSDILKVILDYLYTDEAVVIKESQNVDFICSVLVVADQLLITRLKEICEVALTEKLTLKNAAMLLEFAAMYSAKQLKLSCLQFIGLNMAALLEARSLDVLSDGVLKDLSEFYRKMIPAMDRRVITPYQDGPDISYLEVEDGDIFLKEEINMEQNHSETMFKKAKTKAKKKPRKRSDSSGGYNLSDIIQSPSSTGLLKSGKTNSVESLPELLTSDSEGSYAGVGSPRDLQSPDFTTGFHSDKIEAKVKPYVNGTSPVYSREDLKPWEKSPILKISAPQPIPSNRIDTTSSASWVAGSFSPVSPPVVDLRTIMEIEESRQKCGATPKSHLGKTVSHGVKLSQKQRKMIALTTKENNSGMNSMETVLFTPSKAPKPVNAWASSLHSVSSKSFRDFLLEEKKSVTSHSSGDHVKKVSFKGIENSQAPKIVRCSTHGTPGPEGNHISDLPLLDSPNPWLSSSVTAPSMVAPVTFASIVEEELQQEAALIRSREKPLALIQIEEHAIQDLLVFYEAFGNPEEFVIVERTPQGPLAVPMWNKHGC
The test can be described thus: co-IP; HEK293T cells transfected with pCMV6-IBtkα-FLAG or empty pCMV6, treated with MG132 (20 uM, 4 h); lysed in RIPA buffer (50 mM Tris-HCl pH 8.0, 150 mM NaCl, 1 mM EDTA, 1% Igepal, 0.5% sodium deoxycholate); anti-FLAG antibody on protein G beads; Western blot with anti-FLAG and anti-GSK3β. (A western blot detects proteins with antibodies after separation by electrophoresis.)

As to “glycogen synthase kinase 3 β (GSK3β) (from UniProt P49841 1-420)”, the binding entry is given as “binds”.
